Chains of the proteins cited; added tags and fusions are not shown. Lines headed by an entry give the natural chain unless they say otherwise; changes in a name come on top.
UniProt Q13151: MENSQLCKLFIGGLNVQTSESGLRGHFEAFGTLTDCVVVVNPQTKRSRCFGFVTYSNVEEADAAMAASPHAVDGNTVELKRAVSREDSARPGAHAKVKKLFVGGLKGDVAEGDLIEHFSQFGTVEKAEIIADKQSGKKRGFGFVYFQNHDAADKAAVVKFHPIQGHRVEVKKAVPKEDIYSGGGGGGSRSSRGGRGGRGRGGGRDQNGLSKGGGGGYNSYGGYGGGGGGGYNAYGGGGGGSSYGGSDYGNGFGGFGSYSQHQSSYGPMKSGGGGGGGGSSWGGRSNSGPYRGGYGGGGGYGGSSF

In paper PMC12405378:

Biological target: GST-hnRNPA0 (UniProt Q13151)
Test: EMSA
Conditions: 250 ng RNA, 10 and 25 ug protein; EMSA: 30 min at RT in a binding buffer cited to ref 39 (composition, salt and pH not given); 10% native PAGE, 0.5x TBE; recombinant protein; residues 1-305; protein details: N-terminal GST (pGEX-5X-2); label: biotin-16-UTP (internal); probe letters rebuilt from the primers and the genome; part of a longer molecule

CACAGAUGUGUGAUUCACAGUGUGAAUCUUGGUGUCUACGUUACCAGGCAGGAAGGCUGAGAGGAGAGAGACUCCAGCUGGGUUGGAAAACAGUAUUUUCCAAACUACCUUCCAGUUCCUCAUUUUUGAAUACAGGCAUAGAGUUCAGACUUUUUUUAAA [FrC1 RNA (CCR2 3'-UTR, 160 nt)]
binding result: binds

For at least one entry, the source does not settle the construct or the ends of the probe.
